Source: ChEMBL document CHEMBL1151717, “In vivo active aldosterone synthase inhibitors with improved selectivity: lead optimization providing a series of pyridine substituted 3,4-dihydro-1H-quinolin-2-one derivatives” (J Med Chem, 2008)

Test: Selectivity ratio, IC50 for human CYP11B1 to IC50 for human CYP11B2

N#Cc1ccc(C2CCCc3cncn32)cc1 (stereo unspecified) [FADROZOLE]
IC50: 10 nM
